Results reported in article PMC7969951.
No constants are given. Whether binding was seen depends on the method and setting. Binding seen in cells or lysates may run through a third protein. Some binding calls cover weakened binding; strength is not graded here. Sequences can lack the tags named with a protein.

T1: FLAG-tagged USP39 (UniProt Q53GS9)
T1 sequence: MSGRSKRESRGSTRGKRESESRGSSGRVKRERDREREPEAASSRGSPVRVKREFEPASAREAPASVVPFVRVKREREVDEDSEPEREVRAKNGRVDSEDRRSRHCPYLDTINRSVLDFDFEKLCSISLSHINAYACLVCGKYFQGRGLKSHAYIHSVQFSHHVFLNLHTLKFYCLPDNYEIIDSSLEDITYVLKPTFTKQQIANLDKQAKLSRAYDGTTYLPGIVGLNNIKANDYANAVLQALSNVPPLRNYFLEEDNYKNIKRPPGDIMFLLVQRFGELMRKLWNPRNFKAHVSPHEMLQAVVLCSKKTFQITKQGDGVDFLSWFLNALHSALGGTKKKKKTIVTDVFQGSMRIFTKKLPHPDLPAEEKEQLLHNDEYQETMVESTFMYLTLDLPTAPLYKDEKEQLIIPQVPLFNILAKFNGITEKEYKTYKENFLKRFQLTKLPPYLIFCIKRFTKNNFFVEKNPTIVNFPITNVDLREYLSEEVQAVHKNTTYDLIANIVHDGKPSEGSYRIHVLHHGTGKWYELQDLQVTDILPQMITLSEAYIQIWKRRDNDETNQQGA


Biological target: T1, FLAG-tagged USP39
Test: co-IP; FLAG-tagged USP39 expressed in A2780 cells; whole-cell extract precipitated with anti-FLAG antibody and Protein A/G beads, western blot; IgG as negative control

Row | binding | Binder
1 | binds | SART1 (protein, UniProt O43290 1-800) MGSSKKHRGEKEAAGTTAAAGTGGATEQPPRHREHKKHKHRSGGSGGSGGERRKRSRERGGERGSGRRGAEAEARSSTHGRERSQAEPSERRVKREKRDDGYEAAASSKTSSGDASSLSIEETNKLRAKLGLKPLEVNAIKKEAGTKEEPVTADVINPMALRQREELREKLAAAKEKRLLNQKLGKIKTLGEDDPWLDDTAAWIERSRQLQKEKDLAEKRAKLLEEMDQEFGVSTLVEEEFGQRRQDLYSARDLQGLTVEHAIDSFREGETMILTLKDKGVLQEEEDVLVNVNLVDKERAEKNVELRKKKPDYLPYAEDESVDDLAQQKPRSILSKYDEELEGERPHSFRLEQGGTADGLRERELEEIRAKLRLQAQSLSTVGPRLASEYLTPEEMVTFKKTKRRVKKIRKKEKEVVVRADDLLPLGDQTQDGDFGSRLRGRGRRRVSEVEEEKEPVPQPLPSDDTRVENMDISDEEEGGAPPPGSPQVLEEDEAELELQKQLEKGRRLRQLQQLQQLRDSGEKVVEIVKKLESRQRGWEEDEDPERKGAIVFNATSEFCRTLGEIPTYGLAGNREEQEELMDFERDEERSANGGSESDGEENIGWSTVNLDEEKQQQDFSASSTTILDEEPIVNRGLAAALLLCQNKGLLETTVQKVARVKAPNKSLPSAVYCIEDKMAIDDKYSRREEYRGFTQDFKEKDGYKPDVKIEYVDETGRKLTPKEAFRQLSHRFHGKGSGKMKTERRMKKLDEEALLKKMSSSDTPLGTVALLQEKQKAQKTPYIVLSGSGKSMNANTITK
2 | binds | PRPF3 (protein, UniProt O43395 1-683) MALSKRELDELKPWIEKTVKRVLGFSEPTVVTAALNCVGKGMDKKKAADHLKPFLDDSTLRFVDKLFEAVEEGRSSRHSKSSSDRSRKRELKEVFGDDSEISKESSGVKKRRIPRFEEVEEEPEVIPGPPSESPGMLTKLQIKQMMEAATRQIEERKKQLSFISPPTPQPKTPSSSQPERLPIGNTIQPSQAATFMNDAIEKARKAAELQARIQAQLALKPGLIGNANMVGLANLHAMGIAPPKVELKDQTKPTPLILDEQGRTVDATGKEIELTHRMPTLKANIRAVKREQFKQQLKEKPSEDMESNTFFDPRVSIAPSQRQRRTFKFHDKGKFEKIAQRLRTKAQLEKLQAEISQAARKTGIHTSTRLALIAPKKELKEGDIPEIEWWDSYIIPNGFDLTEENPKREDYFGITNLVEHPAQLNPPVDNDTPVTLGVYLTKKEQKKLRRQTRREAQKELQEKVRLGLMPPPEPKVRISNLMRVLGTEAVQDPTKVEAHVRAQMAKRQKAHEEANAARKLTAEQRKVKKIKKLKEDISQGVHISVYRVRNLSNPAKKFKIEANAGQLYLTGVVVLHKDVNVVVVEGGPKAQKKFKRLMLHRIKWDEQTSNTKGDDDEESDEEAVKKTNKCVLVWEGTAKDRSFGEMKFKQCPTENMAREHFKKHGAEHYWDLALSESVLESTD
